PubChem BioAssay AID1224830 – NIAID, 2016

- Screen: 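Regulators of TLR4 signalling towards TNF-alpha in macrophage-like cells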 (primary screen)
- Cell system: human THP-1 monocytic leukaemia cells, TNF dual-luciferase reporter clone, PMA-differentiated to macrophage-like cells
- Knock-down reagent: siRNA pool against human genes, 50 nM
- Time to read-out: LPS for 4 h, given about 3 days after siRNA transfection
- Challenge: bacterial LPS (TLR4 ligand), 10 ng/ml
- Measurement: 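Ratio of firefly to renilla light, scaled to the plate median and expressed as a robust z-score per replicate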
- Reading the numbers: TNF reporter robust z-score: higher = stronger TNF reporter response to LPS
- Rule for the call: 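a well is active when its z-score exceeds 2.8 or falls below -1.5; control wells carry no call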
This is a random part of about 18,000 reagents tested. In the full data, about 2,900 (16%) got an active call. 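Calls are made per well; low scores hint the gene aids the LPS response, high scores that it dampens it.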 Repeated entries: four replicate wells of each siRNA pool.

PAMR1 [SID315455533] → TNF reporter robust z-score: -0.83; Call: inactive
PAMR1 [SID315455533] → TNF reporter robust z-score: -0.35; Call: inactive
PAMR1 [SID315455533] → TNF reporter robust z-score: -0.29; Call: inactive
PAMR1 [SID315455533] → TNF reporter robust z-score: -0.74; Call: inactive
ARL13A [SID315464705] → Call: inactive
TPCN1 [SID315456918] → TNF reporter robust z-score: -1.68; Call: active
TPCN1 [SID315456918] → TNF reporter robust z-score: -0.21; Call: inactive
TPCN1 [SID315456918] → TNF reporter robust z-score: -0.46; Call: inactive
TPCN1 [SID315456918] → TNF reporter robust z-score: 2.23; Call: inactive
GRIN2B [SID315449049] → TNF reporter robust z-score: 2.85; Call: active
GRIN2B [SID315449049] → TNF reporter robust z-score: 1.91; Call: inactive
GRIN2B [SID315449049] → TNF reporter robust z-score: 0.92; Call: inactive
GRIN2B [SID315449049] → TNF reporter robust z-score: 0.15; Call: inactive
LAMTOR3 [SID315452716] → TNF reporter robust z-score: 0.88; Call: inactive
LAMTOR3 [SID315452716] → TNF reporter robust z-score: 0.03; Call: inactive
LAMTOR3 [SID315452716] → TNF reporter robust z-score: 0.41; Call: inactive
LAMTOR3 [SID315452716] → TNF reporter robust z-score: 0.72; Call: inactive

2 successive records already listed, for reference:
TPCN1 [SID315456918] → TNF reporter robust z-score: -0.46; Call: inactive
TPCN1 [SID315456918] → TNF reporter robust z-score: 2.23; Call: inactive

More reagents follow.
UFSP1 [SID315464820] → TNF reporter robust z-score: 0.15; Call: inactive
UFSP1 [SID315464820] → TNF reporter robust z-score: 0.66; Call: inactive
UFSP1 [SID315464820] → TNF reporter robust z-score: -0.53; Call: inactive
UFSP1 [SID315464820] → TNF reporter robust z-score: -0.26; Call: inactive
TUBB2A [SID315452009] → TNF reporter robust z-score: 0.95; Call: inactive
TUBB2A [SID315452009] → TNF reporter robust z-score: 3.47; Call: active
TUBB2A [SID315452009] → TNF reporter robust z-score: 3.7; Call: active
TUBB2A [SID315452009] → TNF reporter robust z-score: 1.81; Call: inactive
GYPA [SID315449117] → TNF reporter robust z-score: -0.42; Call: inactive
GYPA [SID315449117] → TNF reporter robust z-score: -0.02; Call: inactive
GYPA [SID315449117] → TNF reporter robust z-score: -1.24; Call: inactive
GYPA [SID315449117] → TNF reporter robust z-score: -0.44; Call: inactive
ZNF134 [SID315452243] → TNF reporter robust z-score: -1.13; Call: inactive
ZNF134 [SID315452243] → TNF reporter robust z-score: 0.43; Call: inactive
ZNF134 [SID315452243] → TNF reporter robust z-score: 0.2; Call: inactive
ZNF134 [SID315452243] → TNF reporter robust z-score: -0.56; Call: inactive
